Source: paper PMC10356804
Like-named read-outs stand apart in the source and are kept apart here. No constants are given. Whether binding was seen depends on the method and setting. In cells and extracts the contact can be indirect. A yes stands for co-enrichment or nearness to the bait. Other partners may have been found.

Sequences of proteins named here, by UniProt entry; tags and fusion partners are left off.
UniProt Q91YE7: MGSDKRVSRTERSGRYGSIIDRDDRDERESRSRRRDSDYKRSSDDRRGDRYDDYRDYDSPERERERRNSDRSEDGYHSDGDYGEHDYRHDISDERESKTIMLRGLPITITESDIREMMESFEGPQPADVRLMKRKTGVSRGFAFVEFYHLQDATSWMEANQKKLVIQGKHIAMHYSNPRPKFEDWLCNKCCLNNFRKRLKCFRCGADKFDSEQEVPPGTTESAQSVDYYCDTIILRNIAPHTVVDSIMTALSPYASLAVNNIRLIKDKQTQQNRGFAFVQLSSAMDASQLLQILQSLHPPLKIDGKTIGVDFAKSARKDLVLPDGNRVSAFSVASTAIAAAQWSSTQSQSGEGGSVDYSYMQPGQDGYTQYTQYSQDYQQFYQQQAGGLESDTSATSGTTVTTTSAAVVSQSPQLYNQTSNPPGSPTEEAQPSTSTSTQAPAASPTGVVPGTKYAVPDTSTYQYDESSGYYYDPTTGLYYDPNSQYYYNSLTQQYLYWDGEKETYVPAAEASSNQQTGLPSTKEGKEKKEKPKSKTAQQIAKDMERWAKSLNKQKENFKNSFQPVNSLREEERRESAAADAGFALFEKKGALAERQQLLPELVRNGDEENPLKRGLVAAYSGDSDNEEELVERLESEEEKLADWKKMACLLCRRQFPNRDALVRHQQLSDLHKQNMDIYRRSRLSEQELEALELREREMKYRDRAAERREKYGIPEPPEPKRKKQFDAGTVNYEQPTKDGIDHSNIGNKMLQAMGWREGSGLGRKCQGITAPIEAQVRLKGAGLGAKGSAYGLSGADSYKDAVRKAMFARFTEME
UniProt P26369: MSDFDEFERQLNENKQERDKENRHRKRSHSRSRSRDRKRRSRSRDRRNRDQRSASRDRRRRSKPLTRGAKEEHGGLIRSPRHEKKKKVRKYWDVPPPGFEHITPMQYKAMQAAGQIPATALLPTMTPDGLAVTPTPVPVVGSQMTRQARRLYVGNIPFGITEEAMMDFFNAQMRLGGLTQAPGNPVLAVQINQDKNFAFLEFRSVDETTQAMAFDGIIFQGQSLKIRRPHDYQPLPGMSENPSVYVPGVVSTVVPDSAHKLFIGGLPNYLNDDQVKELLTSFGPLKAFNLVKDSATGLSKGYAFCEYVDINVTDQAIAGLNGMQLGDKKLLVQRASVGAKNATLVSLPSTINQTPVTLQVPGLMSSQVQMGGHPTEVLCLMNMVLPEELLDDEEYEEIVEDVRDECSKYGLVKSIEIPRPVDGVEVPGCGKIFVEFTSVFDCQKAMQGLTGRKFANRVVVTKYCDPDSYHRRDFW

Legend:
[1] = molecular target: RBM5 (mouse (endogenous in mouse brain)) (UniProt Q91YE7); assay: affinity purification with mass spectrometry; endogenous RBM5 immunoprecipitated from WT and R6/2 HD mouse half-brain lysates (2 mg protein; 50 mM TrisHCl pH 7.5, 150 mM NaCl, 0.5% NP-40, 0.1% Na-deoxycholate, 5% glycerol, Benzonase) with protein-G beads cross-linked to mouse (AbM) or rabbit (AbR) anti-RBM5 antibody, 4 h at 4 °C; empty beads as control; only proteins enriched with both antibodies counted
[2] = molecular target: RBM5 (mouse (endogenous in mouse brain)) (UniProt Q91YE7); assay: as above; remark: listed apart in the source

binding [1]	binding [2]	Molecule
binds		U2AF2 (U2AF65) (from UniProt P26369 1-475)
	binds	DDX23 (protein, UniProt D3Z0M9 1-819) MAGELADKKDRDASPKEERKRSRTPERDRDRDRDRKSSPSKDRKRHRSRDRRRGGSRSRSRSRSKSVERERRHKERERDKERDRSKKERERDKDGHRRDKDRKRSSLSPGRGKDFKSRKDRDSKKGDEDEHGDKRPKIQPLSLEELLAKKKAEEEAEAKPKFLSKAEREAEALKRRQQEVEERQKMLEEERKKRKQFQDLGRKMLEDPQERERRERRERMERETNGNEDEEGRQKIREEKDKSKELHAIKERYLGGIKKRRRTRHLNDRKFVFEWDASEDTSIDYNPLYKERHQVQLLGRGFIAGIDLKQQKREQSRFYGDLMEKRRTLEEKEQEEARLRKLRKKEAKQRWDDRHWSQKKLDEMTDRDWRIFREDYSITTKGGKIPNPIRSWKDSSLPPHILEVIDKCGYKEPTPIQRQAIPIGLQNRDIIGVAETGSGKTAAFLIPLLVWITTLPKIDRIEESDQGPYAIILAPTRELAQQIEEETIKFGKPLGIRTVAVIGGISREDQGFRLRMGCEIVIATPGRLIDVLENRYLVLSRCTYVVLDEADRMIDMGFEPDVQKILEHMPVSNQKPDTDEAEDPEKMLANFESGKHKYRQTVMFTATMPPAVERLARSYLRRPAVVYIGSAGKPHERVEQKVFLMSESEKRKKLLAILEQGFDPPIIIFVNQKKGCDVLAKSLEKMGYNACTLHGGKGQEQREFALSNLKAGAKDILVATDVAGRGIDIQDVSMVVNYDMAKNIEDYIHRIGRTGRAGKSGVAITFLTKEDSAVFYELKQAILESPVSSCPPELANHPDAQHKPGTILTKKRREETIFA
